Measured values as given in paper doi:10.1101/681833.
No constants are given. Whether binding was seen depends on the method and setting. Binding seen in cells or lysates may run through a third protein. Binding calls can cover weak binding; strength is not graded here.

Biological target: T1, malin (co-expressed in cells) (UniProt Q6VVB1)
T1 sequence: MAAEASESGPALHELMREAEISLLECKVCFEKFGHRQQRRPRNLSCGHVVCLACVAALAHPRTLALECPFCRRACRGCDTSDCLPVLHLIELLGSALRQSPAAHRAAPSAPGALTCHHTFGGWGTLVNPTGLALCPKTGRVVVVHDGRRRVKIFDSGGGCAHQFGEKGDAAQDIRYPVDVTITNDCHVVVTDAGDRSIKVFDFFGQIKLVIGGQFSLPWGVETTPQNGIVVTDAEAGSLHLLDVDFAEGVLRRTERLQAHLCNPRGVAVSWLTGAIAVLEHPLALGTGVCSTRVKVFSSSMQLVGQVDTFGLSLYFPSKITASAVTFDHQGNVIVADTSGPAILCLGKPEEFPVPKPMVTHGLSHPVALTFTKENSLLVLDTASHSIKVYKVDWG
Test: co-IP

- binding: binds
Substance: glycogen phosphorylase liver isoform (co-expressed in cells) (enzyme)
